Assay results from doi:10.1101/2021.10.05.463194.
No constants are given. Whether binding was seen depends on the method and setting. In cells and extracts the contact can be indirect. Some entries that bind do so weakly or less than the wild type. Tags and fused reporters may be left off the sequences shown.

T1: GST-tagged HsNup93 (1-150) (human) (UniProt Q8N1F7)
T1 sequence: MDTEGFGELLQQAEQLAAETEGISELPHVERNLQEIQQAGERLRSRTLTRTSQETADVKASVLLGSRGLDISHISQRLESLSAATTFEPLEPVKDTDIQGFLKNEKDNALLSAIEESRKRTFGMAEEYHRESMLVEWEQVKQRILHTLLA

T2: GST-tagged HsNup93 (96-819) (human) (UniProt Q8N1F7)
T2 sequence: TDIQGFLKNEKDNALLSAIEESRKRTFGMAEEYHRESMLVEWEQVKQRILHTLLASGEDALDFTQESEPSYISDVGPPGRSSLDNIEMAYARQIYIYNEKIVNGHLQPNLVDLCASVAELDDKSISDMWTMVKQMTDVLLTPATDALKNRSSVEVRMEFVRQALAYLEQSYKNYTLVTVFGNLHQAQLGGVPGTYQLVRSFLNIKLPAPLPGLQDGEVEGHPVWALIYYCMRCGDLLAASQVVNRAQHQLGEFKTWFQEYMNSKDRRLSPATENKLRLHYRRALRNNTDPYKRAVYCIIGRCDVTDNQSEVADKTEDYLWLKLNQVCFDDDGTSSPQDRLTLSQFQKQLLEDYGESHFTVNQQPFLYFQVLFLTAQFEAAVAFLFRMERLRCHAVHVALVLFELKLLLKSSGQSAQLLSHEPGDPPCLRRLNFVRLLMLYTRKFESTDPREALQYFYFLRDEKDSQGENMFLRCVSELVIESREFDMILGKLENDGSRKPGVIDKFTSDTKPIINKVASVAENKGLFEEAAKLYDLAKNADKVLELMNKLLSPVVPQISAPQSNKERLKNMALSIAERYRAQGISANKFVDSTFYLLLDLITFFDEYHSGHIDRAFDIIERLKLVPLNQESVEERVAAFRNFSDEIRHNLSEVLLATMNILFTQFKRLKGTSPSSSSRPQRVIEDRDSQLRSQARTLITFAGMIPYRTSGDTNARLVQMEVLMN

B1: His6-tagged HsNup35 (1-305) (domain or fragment, UniProt Q8NFH5 1-305)
chain: MAAFAVEPQGPALGSEPMMLGSPTSPKPGVNAQFLPGFLMGDLPAPVTPQPRSISGPSVGVMEMRSPLLAGGSPPQPVVPAHKDKSGAPPVRSIYDDISSPGLGSTPLTSRRQPNISVMQSPLVGVTSTPGTGQSMFSPASIGQPRKTTLSPAQLDPFYTQGDSLTSEDHLDDSWVTVFGFPQASASYILLQFAQYGNILKHVMSNTGNWMHIRYQSKLQARKALSKDGRIFGESIMIGVKPCIDKSVMESSDRCALSSPSLAFTPPIKTLGTPTQPGSTPRISTMRPLATAYKASTSDYQVISD
B2: His6-tagged HsNup155 (1-515) (domain or fragment, UniProt O75694 1-515)
chain: MPSSLLGAAMPASTSAAALQEALENAGRLIDRQLQEDRMYPDLSELLMVSAPNNPTVSGMSDMDYPLQGPGLLSVPNLPEISSIRRVPLPPELVEQFGHMQCNCMMGVFPPISRAWLTIDSDIFMWNYEDGGDLAYFDGLSETILAVGLVKPKAGIFQPHVRHLLVLATPVDIVILGLSYANLQTGSGVLNDSLSGGMQLLPDPLYSLPTDNTYLLTITSTDNGRIFLAGKDGCLYEVAYQAEAGWFSQRCRKINHSKSSLSFLVPSLLQFTFSEDDPILQIAIDNSRNILYTRSEKGVIQVYDLGQDGQGMSRVASVSQNAIVSAAGNIARTIDRSVFKPIVQIAVIENSESLDCQLLAVTHAGVRLYFSTCPFRQPLARPNTLTLVHVRLPPGFSASSTVEKPSKVHRALYSKGILLMAASENEDNDILWCVNHDTFPFQKPMMETQMTAGVDGHSWALSAIDELKVDKIITPLNKDHIPITDSPVVVQQHMLPPKKFVLLSAQGSLMFHKLR

Tests used:
[1] = molecular target: T1, GST-tagged HsNup93 (1-150) (human); assay: pull-down
[2] = molecular target: T2, GST-tagged HsNup93 (96-819) (human); assay: pull-down

Row | Binder | binding [1] | binding [2]
1 | B1 | binds | binds
2 | B2 | – | binds
